Our source for the binding values is patent US20260109748A1.

Protein sequences, listed by entry. Tags and fused reporters are not part of them. Lines headed by an entry give the natural chain unless they say otherwise; changes in a name come on top.
UniProt Q8WTT0: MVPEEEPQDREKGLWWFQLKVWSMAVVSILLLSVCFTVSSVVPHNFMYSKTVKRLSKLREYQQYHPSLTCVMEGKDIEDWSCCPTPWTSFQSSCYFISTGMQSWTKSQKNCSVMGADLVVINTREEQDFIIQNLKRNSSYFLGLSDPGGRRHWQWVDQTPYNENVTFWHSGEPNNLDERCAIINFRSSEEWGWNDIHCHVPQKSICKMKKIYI

No constants are given. Whether binding was seen depends on the method and setting. Some results given as binding are weak or reduced against the parent protein; the word gives no strength.

The target of the assay is recombinant His6-tagged extracellular domain of human Clec4C (C-type lectin domain family 4, member C) (human) (UniProt Q8WTT0). Briefly: ELISA screen of periplasmic extracts.

B1: 2CL7 (VHH)
VHH: QVQLQESGGGLVQAGDSLRLSCAPSGFTFDGYAIGWFRQAPGKEREKVACINKSDGLTYYEDSVKGRFTISSDTAKNTIHLQMNSLKPDDTAVYYCAAAWECDYAPADFGSWGQGTQVTVSS
B1: the binding result is “binds”.
